# The supplement of paper PMC3334620
# Over roughly 33,000 sequences, “E-score (-0.5 to 0.5)” has its median near -0.0034; the highest 2% begin near 0.25. Some of the results follow.
# Biological target: T1, Yap3 (UniProt P38749)
# T1 sequence: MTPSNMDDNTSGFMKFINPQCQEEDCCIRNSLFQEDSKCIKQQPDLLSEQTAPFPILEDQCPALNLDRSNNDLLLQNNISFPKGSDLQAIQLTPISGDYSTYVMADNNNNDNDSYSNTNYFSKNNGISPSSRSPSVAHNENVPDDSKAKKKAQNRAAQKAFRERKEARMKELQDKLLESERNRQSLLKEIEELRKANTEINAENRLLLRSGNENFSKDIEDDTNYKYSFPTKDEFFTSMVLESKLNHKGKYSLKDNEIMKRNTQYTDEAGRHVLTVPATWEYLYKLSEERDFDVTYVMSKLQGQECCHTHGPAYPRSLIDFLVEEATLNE
# Experiment: PBM E-score (8-mer binding enrichment) (E-score (-0.5 to 0.5)); higher = stronger / more preferred TF binding
# Conditions: protein concentration: 100 nM; construct: GST-full length
# Method in brief: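 Full-length yeast transcription factors or their DNA-binding domains, GST-tagged and expressed with PURExpress, were applied at about 100-200 nM to universal all-10-mer Agilent arrays. These arrays had been made double-stranded by primer extension on fresh or once-stripped slides. Detection used fluorescent anti-GST, normalisation used masliner, and E-scores for ungapped eight-base words pooled with reverse complements came from the Universal PBM Analysis Suite.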
row,Sequence,PBM E-score
1,CAAACGCA,-0.033
2,CATTGGAG,-0.00265
3,GGGACTTA,-0.0342
4,CTACGAAG,-0.216
5,CAACCCTG,-0.0135
6,ACCTACGT,0.0431
7,ATCGCACA,0.0433
8,GCGCATGA,0.004
9,CATGCACA,0.14
10,AACGTGGG,-0.0983
11,GGATTGTA,0.0712
12,ACGGCGCC,-0.173
13,CCTCTCGA,-0.0546
14,ATGCTCTG,-0.135
15,AGCATCCG,-0.0782
16,CAATGTTC,-0.0564
17,AACCTTAA,0.159
18,GGGTGCTA,-0.0464
19,GGGGCTAA,-0.103
20,ACCGAAAA,0.178
21,ATATAGGC,0.12
22,CAACAAGC,0.0604
23,ACAGCGAG,-0.137
24,CCACGTGA,0.0417

row,Sequence,PBM E-score
1,TGATTTAA,0.242
2,GCAATTGC,0.0456
3,AAAGTCTC,-0.219
4,AGTCATAT,0.193
5,ACCGATCG,0.00392
6,AAGCTTAG,0.164
7,CGACAGGA,0.0296
8,ATTTGGAG,-0.135
9,ACCCTATC,-0.0122
10,TCTGAGCA,-0.00117
11,GAGACGTA,0.0952
12,CGTACTCC,-0.0483
13,CCTATTTC,0.0877
14,ACATTAAA,0.229
15,CCTGTATA,-0.0196
16,AGGGATTG,-0.0391
17,GCGCGGTA,0.197
18,TACCTCCA,-0.0761
19,AGTGCTAA,-0.00432
20,ACACTACC,-0.221
21,GTCAGCCA,-0.0924
22,CGAGCCCC,-0.222
23,GAGGCTGC,-0.143
24,CCGGGTAA,0.0179

row,Sequence,PBM E-score
1,GACTACCA,-0.091
2,CGGTAGCC,0.0787
3,CTGACTAA,0.392
4,GGGTATAA,0.136
5,CGATACCA,0.0687
6,CCAATAGA,-0.0688
7,ACATTCTA,-0.00561
8,AACCGTGC,-0.0412
9,CAGTTCGA,0.0686
10,CACTCTGA,-0.131
11,AGTGGGAA,0.125
12,ATTGTTGG,0.148
13,CTGTATCA,-0.074
14,GAAGAATC,-0.13
15,CATCTGGA,-0.198
16,AACGTGCA,0.0603
17,GATAGCCC,-0.113
18,GATTTTTA,-0.0325
19,CCTTCGAG,-0.253
20,CCGGCGTA,-0.22
21,GTTCATCA,0.05
22,CTGATATA,-0.0342
23,GCAGATAC,0.05
24,AGCACTAG,0.0392

row,Sequence,PBM E-score
1,CTGTAGTA,0.281
2,AGCTGACT,-0.00776
3,CTGCGAAA,-0.22
4,CGATCACC,-0.0553
5,ACGACTCT,-0.0196
6,GACCGATA,0.0358
7,ATGGAGTC,0.0588
8,GAACTGCC,-0.133
9,CCCGATCG,-0.0307
10,ATCTGCGA,-0.0489
11,CTTGGATC,0.0677
12,ACGCAACT,0.11
13,CAAGTCAG,-0.0713
14,AACTTAAG,0.0692
15,GAAGATAA,0.162
16,AGGGAAAG,-0.147
17,CGGTGGAA,-0.192
18,CGGAACTA,0.0432
19,ATTGCTAA,0.222
20,CACATTAG,-0.0914
21,GAATATCC,0.0628
22,AGACGACT,-0.122
23,GGATATCC,0.038
24,ATTCCCTG,0.15

row,Sequence,PBM E-score
1,GTCGAGCA,-0.205
2,CGCCTGAC,-0.00752
3,GATCCGCC,-0.0253
4,ACTGTGGA,0.0177
5,AGGGAGGA,-0.139
6,AAGCGCAA,0.0713
7,AGACCAGA,0.0393
8,CCGCCTAG,-0.0538
9,AATGGTCC,0.113
10,AGCAGTAG,-0.271
11,GTAGCTAC,0.0989
12,CACGCTCA,0.0847
13,AACGTTGG,0.0526
14,AGGAGACT,-0.148
15,GCGGATAC,0.00093
16,ATGGCGGA,-0.204
17,ATTGGTCC,0.0822
18,CACCAAGA,0.0113
19,CGTGCGCC,0.0373
20,ATGTGCGA,-0.0659
21,GCCCAAAA,-0.154
22,ATTTTTTG,0.226
23,CTAAAGGA,-0.0468
24,GGGTAGGA,-0.0274

row,Sequence,PBM E-score
1,CCGAACGG,-0.13
2,CTCCACAA,0.0271
3,ATAAGTCG,-0.0267
4,AACCCTCC,-0.259
5,AGTGGCAA,0.00799
6,TCCACCAA,0.0413
7,AATTTCTC,0.155
8,CTGAAAGC,0.0692
9,ATGGACTG,-0.126
10,CAGCTCGC,0.0205
11,AGTTGAAT,0.232
12,AAAGAGCT,-0.0109
13,GCAAGCGA,0.0299
14,CGACAACC,-0.112
15,AAGGGATA,0.155
16,AACCAAGA,0.0398
17,GAGTACTA,0.078
18,AGGACCGC,-0.166
19,GAAATTTC,-0.0257
20,GGGGGTAC,-0.269
21,AGCAAAGA,0.0203
22,AGCTATAG,-0.228
23,CGACTACA,0.0886

# Some of the entries above, set out differently:
row | Sequence | PBM E-score
1 | CAAACGCA | -0.033
7 | ATCGCACA | 0.0433
8 | GCGCATGA | 0.004
9 | CATGCACA | 0.14
15 | AGCATCCG | -0.0782
17 | AACCTTAA | 0.159
20 | ACCGAAAA | 0.178
3 | AAAGTCTC | -0.219
9 | ACCCTATC | -0.0122
10 | TCTGAGCA | -0.00117
14 | ACATTAAA | 0.229
20 | ACACTACC | -0.221
2 | CGGTAGCC | 0.0787
5 | CGATACCA | 0.0687
16 | AACGTGCA | 0.0603
19 | CCTTCGAG | -0.253
20 | CCGGCGTA | -0.22
22 | CTGATATA | -0.0342
23 | GCAGATAC | 0.05
24 | AGCACTAG | 0.0392
1 | CTGTAGTA | 0.281
5 | ACGACTCT | -0.0196
6 | GACCGATA | 0.0358
13 | CAAGTCAG | -0.0713
21 | GAATATCC | 0.0628
22 | AGACGACT | -0.122
7 | AGACCAGA | 0.0393
8 | CCGCCTAG | -0.0538
9 | AATGGTCC | 0.113
10 | AGCAGTAG | -0.271
21 | GCCCAAAA | -0.154
22 | ATTTTTTG | 0.226
24 | GGGTAGGA | -0.0274
1 | CCGAACGG | -0.13
2 | CTCCACAA | 0.0271
5 | AGTGGCAA | 0.00799
7 | AATTTCTC | 0.155
10 | CAGCTCGC | 0.0205
11 | AGTTGAAT | 0.232
12 | AAAGAGCT | -0.0109
13 | GCAAGCGA | 0.0299
16 | AACCAAGA | 0.0398
17 | GAGTACTA | 0.078
18 | AGGACCGC | -0.166
